According to patent US20230372551A1 (priority 2020, published 2023):

Assay: general procedure: Fmoc solid-phase peptide synthesis
Details: conjugation step, analytical C18 RP-HPLC

Ac-(D-Ala)-(D-Lys[X^4])-(D-Asp)-(D-Asp)-(D-Gln)-(D-Asn)-(D-Pro)-(D-Trp)-(D-Arg)-(D-Ala)-(D-Tyr)-(D-Leu)-(D-Asp)-(D-Leu)-(D-Leu)-(D-Phe)-(D-Pro)-(D-Thr)-(D-Asp)-(D-Thr)-(D-Leu)-(D-Leu)- (D-Leu)-(D-Asp)-(D-Leu)-(D-Leu)-(D-Trp)-(D-Ala)
final HPLC purity: >95%
